# According to PubChem BioAssay AID1439 (NMMLSC, 2008):
# Protein sequences, listed by entry. Tags and fused reporters are not part of them.
# UniProt P09471, whole entry, looked up: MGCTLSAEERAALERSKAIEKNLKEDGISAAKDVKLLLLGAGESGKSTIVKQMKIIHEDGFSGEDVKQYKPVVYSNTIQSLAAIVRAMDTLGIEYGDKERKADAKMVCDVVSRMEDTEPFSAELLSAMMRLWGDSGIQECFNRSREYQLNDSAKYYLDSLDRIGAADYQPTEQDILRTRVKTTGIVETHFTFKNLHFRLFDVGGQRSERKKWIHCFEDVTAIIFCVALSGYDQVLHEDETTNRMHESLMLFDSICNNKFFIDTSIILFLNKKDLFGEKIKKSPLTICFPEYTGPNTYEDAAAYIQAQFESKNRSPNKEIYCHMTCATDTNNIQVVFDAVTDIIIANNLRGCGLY
# In all, about 220,000 compounds went through this assay and about 770 (0.35%) were called active. Inconclusive means that the source gave no clear call. Such entries were picked first, then a sample of the others. No stated cut-off is given here; in the data, active means binding response below about 49% or above about 150%; inconclusive means no clear call, values can overlap the other calls; inactive means in between.
# Biological target: Guanine nucleotide-binding protein G(o) subunit alpha (Homo sapiens) (UniProt P09471)
# Experiment: RGS7-Galphao binding modulators, primary screen, biochemical, multiplexed bead flow cytometry (AID 1439);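 further: fluorescent Galphao held in activated GDP-AlF4 state binding bead-coupled RGS7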
# Conditions: at 10 µM, actives lie on both sides
row,Compound,binding response (% of control)
1,COCCNC(=S)N/N=C(\C)c1cccc(OC)c1,inconclusive: 91.4%
2,COCCNC(=S)NNC(=O)c1ccc(-n2cnnn2)cc1,inconclusive: 97.3%
3,CC(=O)/C(=N/Nc1ccc([N+](=O)[O-])cc1)N1CCCc2ccccc21,inconclusive: 125%
4,Cc1ccc2[nH]c(O)c(N=O)c2c1,inconclusive: 87.9%
5,CCN(CC)S(=O)(=O)c1cccc(-n2c(O)c(C=Nc3ccccc3C(=O)O)c3ccccc3c2=O)c1,inconclusive: -60.5%
6,CCOC(=O)c1c(-c2ccc(C)cc2)csc1NC(=O)/C(C#N)=C/c1ccc(O)c(OC)c1,inactive: 97.6%
7,O=C(CN1CCN(Cc2ccc(Cl)cc2)C1=O)NCCCN1CCOCC1,active: 8.9%
8,Cc1ccc(C2(C)NC(=O)N(CC(=O)Nc3ccc(-c4nc5ccc(C)cc5s4)cc3)C2=O)cc1 (stereo unspecified),inconclusive: 104%
9,CC(=O)c1ccc(-c2ccc(/C=C(/Sc3n[nH]c(C)n3)C(=O)O)o2)cc1,inconclusive: -70.3%
10,Cc1nc(C(F)(F)F)ccc1C(=O)N1CCCCC1,inconclusive: 208%
11,N#CCc1ccc(OC(=O)c2cccnc2)cc1,inconclusive: 139%
12,NC(=O)c1cc(C(=O)c2ccccc2Cl)c[nH]1,inconclusive: 101%
13,CCN(CC)S(=O)(=O)c1ccc(N(C)C)c(NC(=O)C2CCCC2)c1,inconclusive: 36%
14,O=C(O)c1ccc(/C=C2\SC(=S)N(Nc3ccccc3)C2=O)cc1,inconclusive: 108%
15,O=C(O)CCCCCNc1ncnc2ccc(Br)cc12,inactive: 91.8%
16,Cn1c(=S)oc2ccccc21,inconclusive: 117%
17,Clc1ccccc1C1=CC(c2ccco2)n2nnnc2N1 (stereo unspecified),inactive: 96.3%
18,Nc1ncnc(Nc2ccccc2Cl)n1,inconclusive: 166%
19,O=C(CSc1nnc(C2COc3ccccc3O2)o1)N1CCN(c2ccccc2)CC1 (stereo unspecified),inconclusive: 89.2%
20,Cc1ccc(S(=O)(=O)NC(=O)Nc2nccs2)cc1,inconclusive: 260%
21,O=C(O)COc1ccccc1/C=N/NC(=O)CSc1nc2ccccc2n1Cc1ccccc1,inconclusive: 87.7%
22,CC(C)(C)c1cc(CSC(=S)NC2CCS(=O)(=O)C2)c(Br)c(C(C)(C)C)c1 (stereo unspecified),inconclusive: 73.2%
23,Cc1nn(C)cc1/C=N/NC(=O)c1ccco1,inconclusive: 123%
24,COc1ccccc1NC(=O)C(=O)NNS(=O)(=O)c1ccc2ccccc2c1,inconclusive: 110%
25,O=C1CCCC(=O)C1C1c2ccccc2CCN1C(=O)CCl (stereo unspecified),inconclusive: 90.7%
26,O=C(Nc1ccccc1)NC1CCCc2ccccc21 (stereo unspecified),inconclusive: 95.9%

# Random excerpt: 2 records from the list.
row,Compound,binding response (% of control)
22,CC(C)(C)c1cc(CSC(=S)NC2CCS(=O)(=O)C2)c(Br)c(C(C)(C)C)c1 (stereo unspecified),inconclusive: 73.2%
11,N#CCc1ccc(OC(=O)c2cccnc2)cc1,inconclusive: 139%
